In article PMC5391139:
Results are given in words; binding and its absence hold for the method and conditions named. In cells and extracts the contact can be indirect. Some entries that bind do so weakly or less than the wild type.

By UniProt entry, the sequences of proteins in these tests, tags left out. Where a name states a change or a piece, a line headed by the entry shows the natural chain unless it says otherwise. Chains listed by the source or under a name are the forms on record and can include a tag or linker. Residues count along the entry.
UniProt P63165, residues 1-97: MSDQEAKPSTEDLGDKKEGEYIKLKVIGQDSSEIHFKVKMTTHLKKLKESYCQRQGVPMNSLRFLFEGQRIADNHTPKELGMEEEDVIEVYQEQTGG
UniProt Q14676: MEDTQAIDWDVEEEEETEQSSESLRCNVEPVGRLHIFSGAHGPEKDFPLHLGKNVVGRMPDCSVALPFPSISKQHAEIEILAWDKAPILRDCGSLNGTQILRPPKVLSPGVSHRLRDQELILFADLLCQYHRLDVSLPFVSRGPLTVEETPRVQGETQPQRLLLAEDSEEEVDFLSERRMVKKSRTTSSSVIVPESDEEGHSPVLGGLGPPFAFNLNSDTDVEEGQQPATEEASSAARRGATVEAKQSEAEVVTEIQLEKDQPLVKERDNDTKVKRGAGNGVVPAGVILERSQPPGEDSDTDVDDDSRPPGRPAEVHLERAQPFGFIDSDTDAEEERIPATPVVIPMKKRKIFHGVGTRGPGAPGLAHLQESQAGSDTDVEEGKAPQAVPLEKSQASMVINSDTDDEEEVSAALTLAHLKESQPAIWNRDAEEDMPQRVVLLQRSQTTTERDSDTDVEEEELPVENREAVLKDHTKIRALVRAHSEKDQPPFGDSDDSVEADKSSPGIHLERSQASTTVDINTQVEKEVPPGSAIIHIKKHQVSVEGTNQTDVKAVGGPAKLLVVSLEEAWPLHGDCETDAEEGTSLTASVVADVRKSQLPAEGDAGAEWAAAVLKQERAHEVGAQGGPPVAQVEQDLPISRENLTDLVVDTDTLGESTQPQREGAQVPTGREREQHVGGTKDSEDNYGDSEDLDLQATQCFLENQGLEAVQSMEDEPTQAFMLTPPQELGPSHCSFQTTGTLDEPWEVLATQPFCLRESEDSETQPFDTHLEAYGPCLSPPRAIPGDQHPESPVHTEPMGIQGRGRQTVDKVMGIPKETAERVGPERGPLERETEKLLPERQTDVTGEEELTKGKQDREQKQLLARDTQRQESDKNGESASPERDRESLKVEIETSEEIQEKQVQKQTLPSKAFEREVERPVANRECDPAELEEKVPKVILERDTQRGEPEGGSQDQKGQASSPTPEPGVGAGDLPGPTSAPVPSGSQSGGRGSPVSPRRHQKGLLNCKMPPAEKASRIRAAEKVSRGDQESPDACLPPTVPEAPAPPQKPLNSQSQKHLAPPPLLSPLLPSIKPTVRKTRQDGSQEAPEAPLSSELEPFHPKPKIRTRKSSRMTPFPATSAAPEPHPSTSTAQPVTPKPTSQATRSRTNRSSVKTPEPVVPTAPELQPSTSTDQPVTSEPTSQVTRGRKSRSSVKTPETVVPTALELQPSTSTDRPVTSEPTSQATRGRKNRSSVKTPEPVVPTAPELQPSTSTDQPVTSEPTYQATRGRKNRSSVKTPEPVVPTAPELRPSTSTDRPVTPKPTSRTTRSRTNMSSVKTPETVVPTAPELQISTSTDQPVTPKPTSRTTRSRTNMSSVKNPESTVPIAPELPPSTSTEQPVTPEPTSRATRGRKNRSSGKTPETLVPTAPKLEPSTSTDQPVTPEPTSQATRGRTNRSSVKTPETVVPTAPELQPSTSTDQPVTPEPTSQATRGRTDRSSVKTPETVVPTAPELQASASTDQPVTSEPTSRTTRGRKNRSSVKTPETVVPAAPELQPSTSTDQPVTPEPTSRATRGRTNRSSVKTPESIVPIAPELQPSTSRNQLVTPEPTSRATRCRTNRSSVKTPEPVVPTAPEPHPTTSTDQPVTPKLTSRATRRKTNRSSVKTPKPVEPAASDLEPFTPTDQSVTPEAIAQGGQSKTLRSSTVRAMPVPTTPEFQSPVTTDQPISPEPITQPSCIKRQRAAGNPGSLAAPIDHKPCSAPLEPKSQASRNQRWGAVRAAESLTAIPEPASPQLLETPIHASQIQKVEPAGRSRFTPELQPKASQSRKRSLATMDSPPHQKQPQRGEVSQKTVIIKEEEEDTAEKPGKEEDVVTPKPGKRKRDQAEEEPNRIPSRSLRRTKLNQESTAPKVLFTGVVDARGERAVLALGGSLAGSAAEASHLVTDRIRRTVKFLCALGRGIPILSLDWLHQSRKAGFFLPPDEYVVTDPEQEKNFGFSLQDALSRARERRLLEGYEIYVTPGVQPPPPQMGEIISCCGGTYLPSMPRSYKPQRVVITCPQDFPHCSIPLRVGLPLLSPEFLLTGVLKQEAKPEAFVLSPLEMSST
UniProt P54252: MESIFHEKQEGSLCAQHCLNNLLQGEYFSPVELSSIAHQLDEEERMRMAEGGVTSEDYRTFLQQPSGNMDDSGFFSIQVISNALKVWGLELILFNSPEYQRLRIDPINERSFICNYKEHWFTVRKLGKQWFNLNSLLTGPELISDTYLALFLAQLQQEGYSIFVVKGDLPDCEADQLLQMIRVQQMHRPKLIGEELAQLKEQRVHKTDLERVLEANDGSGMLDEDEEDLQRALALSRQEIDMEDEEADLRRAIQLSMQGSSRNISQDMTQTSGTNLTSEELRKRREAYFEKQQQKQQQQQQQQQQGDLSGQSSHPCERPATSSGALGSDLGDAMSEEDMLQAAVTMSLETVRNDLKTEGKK
putative SIM mutated 10xHis‐ataxin‐3‐HA (P54252, form named): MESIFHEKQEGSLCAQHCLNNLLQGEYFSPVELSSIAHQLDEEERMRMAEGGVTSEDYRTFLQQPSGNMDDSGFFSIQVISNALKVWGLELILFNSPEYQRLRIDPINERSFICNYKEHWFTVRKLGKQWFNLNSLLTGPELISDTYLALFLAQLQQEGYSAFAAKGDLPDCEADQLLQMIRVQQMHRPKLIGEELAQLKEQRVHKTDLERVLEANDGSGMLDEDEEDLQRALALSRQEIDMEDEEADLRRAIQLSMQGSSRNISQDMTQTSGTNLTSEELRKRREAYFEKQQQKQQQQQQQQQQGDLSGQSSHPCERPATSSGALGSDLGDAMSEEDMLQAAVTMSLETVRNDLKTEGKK

Key:
[1] = target: recombinant SUMO1 immobilized on agarose beads (UniProt P63165); test: pull-down; recombinant SUMO1 or SUMO2 immobilized on agarose beads incubated with cleared cell lysates (cells with or without 10 ug/ml bleomycin, 1 h) for 2 h at 4°C; EBC buffer (50 mM Tris pH 7.5, 150 mM NaCl, 1 mM EDTA, 1 mM DTT) with 0.5% NP-40 and benzonase; immunoblot; only the target purified
[2] = target: endogenous MDC1 (human (endogenous in U2OS)) (UniProt Q14676); test: co-IP; endogenous MDC1 immunoprecipitated from U2OS nuclear lysates, with or without 10 ug/ml bleomycin; Western blot; also in cells depleted of Ubc9 or PIAS4 (Appendix Fig S4A)

Substance	binding [1]	binding [2]
GFP‐tagged N‐terminal fragment of ataxin‐3 (Josephin domain) (from UniProt P54252 1-180) (domain or fragment)	binds	
endogenous ataxin‐3 (from UniProt P54252 1-361) (enzyme)	binds	binds
putative SIM mutated 10xHis‐ataxin‐3‐HA (from UniProt P54252 1-361) (enzyme)	no binding	
